For three molecules, binding results are on record in article PMC4175344.

Amino acid sequences for entries named in this document (tags omitted).
UniProt P52947: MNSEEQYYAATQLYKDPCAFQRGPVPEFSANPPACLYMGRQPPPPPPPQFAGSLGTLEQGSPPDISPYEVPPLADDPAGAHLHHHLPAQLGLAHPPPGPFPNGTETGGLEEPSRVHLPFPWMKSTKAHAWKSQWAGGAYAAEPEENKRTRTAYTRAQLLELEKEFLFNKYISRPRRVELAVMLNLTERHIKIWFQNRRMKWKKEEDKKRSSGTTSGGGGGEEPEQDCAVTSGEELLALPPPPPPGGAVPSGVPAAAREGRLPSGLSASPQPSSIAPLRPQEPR
UniProt P29596: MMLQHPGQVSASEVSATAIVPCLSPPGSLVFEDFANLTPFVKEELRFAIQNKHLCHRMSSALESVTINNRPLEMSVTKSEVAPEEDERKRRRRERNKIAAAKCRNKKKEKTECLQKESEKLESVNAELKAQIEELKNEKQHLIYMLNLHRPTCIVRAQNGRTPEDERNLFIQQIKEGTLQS

Positions count from the first letter of the chain named. These are yes or no findings as the source states them, for the method shown. Binding seen in cells or lysates may run through a third protein. Some results given as binding are weak or reduced against the parent protein; the word gives no strength. For part of these data: Where a sequence is shown, tags or fusion partners need not be part of it.

Assay [1] deals with Flag-Pdx-1 (pancreatic duodenal homeobox-1) (UniProt P52947). Nature of the assay: co-IP; cells cotransfected with Flag-Pdx-1, GFP-ATF3 or GFP-ATF3(ΔC), with or without ethanol treatment; lysates immunoprecipitated with FLAG antibody, Western blotting; RIPA buffer lysis at 4 °C. (Immunoblotting shows a protein as a band on a membrane.)
Assay [2] concerns the target endogenous Pdx-1 (rat (endogenous in INS-1)) (UniProt P52947). Nature of the assay: co-IP; endogenous Pdx-1 immunoprecipitated from INS-1 cells treated with 100 mM ethanol in the presence or absence of Atf3 siRNA; 1 mg lysate, 2 μg antibody, immunoblot.

B1: GFP-ATF3 (human wild-type ATF3) (protein, UniProt P18847 1-181)
chain: MMLQHPGQVSASEVSASAIVPCLSPPGSLVFEDFANLTPFVKEELRFAIQNKHLCHRMSSALESVTVSDRPLGVSITKAEVAPEEDERKKRRRERNKIAAAKCRNKKKEKTECLQKESEKLESVNAELKAQIEELKNEKQHLIYMLNLHRPTCIVRAQNGRTPEDERNLFIQQIKEGTLQS
B1: the binding entry in assay [1] is given as “binds”.

B2: endogenous Atf3 (activating transcription factor 3) induced by ethanol (protein, UniProt P29596 1-181)
chain: B1 chain with S17T, V67I, S68N, D69N, G73E, V74M, I76V, A79S, K90R
B2: the binding result in assay [2] is given as “binds”.

B3: GFP-ATF3(ΔC), human ATF3(ΔC,101–181) with a C-terminal deletion (domain or fragment, UniProt P18847 1-100)
chain: MMLQHPGQVSASEVSASAIVPCLSPPGSLVFEDFANLTPFVKEELRFAIQNKHLCHRMSSALESVTVSDRPLGVSITKAEVAPEEDERKKRRRERNKIAA
For B3, the binding result in assay [1] is given as “no binding”.
